Assay results taken from article PMC8344021, “Discovery of Small Molecule Bak Activator for Lung Cancer Therapy” (Theranostics, 2021).
These are yes or no findings as the source states them, for the method shown. Binding seen in cells or lysates may run through a third protein. Some results given as binding are weak or reduced against the parent protein; the word gives no strength.

Target: T1, Bak (endogenous, mitochondria of A549 cells) (human (endogenous in A549)), Q16611
T1 chain: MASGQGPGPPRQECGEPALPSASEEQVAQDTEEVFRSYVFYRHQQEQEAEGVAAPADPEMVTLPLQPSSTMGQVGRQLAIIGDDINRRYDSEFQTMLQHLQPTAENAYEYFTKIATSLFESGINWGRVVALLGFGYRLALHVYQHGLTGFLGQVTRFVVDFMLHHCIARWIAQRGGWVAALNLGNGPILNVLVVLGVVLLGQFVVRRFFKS
Assay: cross-linking; mitochondria isolated from A549 xenograft tumor tissues of mice treated with BKA-073 (0, 5, 10, 15 mg/kg/d, 28 days); cross-linking with BMH; Western blot for Bak
Conditions: remark: other sources report otherwise

binding: binds
B1: Bak (endogenous, mitochondria of A549 cells), Q16611 1-211 (natural protein)
chain: MASGQGPGPPRQECGEPALPSASEEQVAQDTEEVFRSYVFYRHQQEQEAEGVAAPADPEMVTLPLQPSSTMGQVGRQLAIIGDDINRRYDSEFQTMLQHLQPTAENAYEYFTKIATSLFESGINWGRVVALLGFGYRLALHVYQHGLTGFLGQVTRFVVDFMLHHCIARWIAQRGGWVAALNLGNGPILNVLVVLGVVLLGQFVVRRFFKS
